# No constants are given. Whether binding was seen depends on the method and setting.
# What was measured:
# [1] = target: PorE OmpA_C-like putative peptidoglycan-binding domain (Porphyromonas gingivalis) (UniProt F5HF80); test: crystal structure; both purified
# [2] = target: PorE OmpA_C-like putative peptidoglycan-binding domain (Porphyromonas gingivalis) (UniProt F5HF80); test: SEC-MALS; Superdex 200 Increase 10/300 GL, 10 mM HEPES pH 7.4, 200 mM NaCl, 0.6 mL/min; purified, concentrated protein; both purified
substance,measurement,setting,value
PorE OmpA_C-like putative peptidoglycan-binding domain (from UniProt F5HF80 534-668) (domain or fragment),binding,[1],no binding
same,binding,[2],no binding

# From PMC7192894
